Measurements from “University of Dundee, Small-Polar-MMV Screening Library” (2021), ChEMBL document CHEMBL3988442.

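Phenotypic screen: M. tuberculosis growth, glucose 7H9 medium, 3 days; the read-out is not stated. Compounds at 50 µM. Direction is inferred from retests: higher values go with more growth inhibition. About 69,000 compounds were tested under these conditions; 1.1% (about 760) showed 50% or more at least once.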

Values are the deposited “Percent Effect”, in %.
The controls that fix the scale are not given in the record; negative values are as filed.
Compounds were drawn at random from those tested, without regard to their results.
Two or more numbers in one place are separate tests of the same structure; such repeats can differ widely.

| # | Compound | percent effect |
|---|---|---|
| 1 | `CC(C)n1[nH]c(=O)c2c1NC(=O)CSC2c1ccc(OCC(N)=O)cc1` (stereo not shown) | 31.25 |
| 2 | `Cc1noc(C)c1C(=O)N1CCSc2ccc(Cl)cc21` | 2.417 |
| 3 | `[H][C@@]12CN(C(=O)N3CCOCC3)C[C@@]1([H])N(CC(C)C)C(=O)CO2` | 30.54 & -6.179 |
| 4 | `Cl.O=C(CCc1cccc(C2CCNCC2)n1)N1CCCCC1` | 8.271 |
| 5 | `c1cnc(-c2nc(CN3CCn4c(nnc4C4CC4)C3)cs2)nc1` | -14.81 |
| 6 | `O=C(c1ccc(-c2cccc3c2CCNC3)o1)N1CCOCC1` | -37.64 |
| 7 | `Cl.O=C1C(NCc2ccc3c(c2)CCO3)CCN1Cc1ccccc1` (stereo not shown) | -14.3 |
| 8 | `Cn1ncc2c1CCCN(C(=O)C1CCCC1)C2` | -33.47 |
| 9 | `CN(Cc1ccc(C#N)cc1)Cn1nccc1-c1cccnc1` | -10.91 |
| 10 | `CC(C)c1cc(C(=O)N2CCc3ccccc3C2C(=O)O)n(C)n1` (stereo not shown) | -18.01 |
| 11 | `[H][C@]12CNC[C@@]1(C(=O)NCCOc1ccccc1F)CN(C(C)=O)C2` | -6.568 |
| 12 | `CCNC(=O)[C@@H]1C[C@H](N)CN1C1CCN(c2ccccc2OC)CC1` | 24.46 |
| 13 | `NC(=O)NCC1CCCCN1C(=O)c1cccc(Cl)c1` (stereo not shown) | -28.87 |
| 14 | `COc1ccc2c(OCC(=O)NCC(F)(F)F)ccnc2c1` | 13.98 |
| 15 | `CC(C)(C)C(=O)N1CCN(C(=O)Nc2cnn(CC(F)F)c2)CC1` | 23.48 & 0.497 |
| 16 | `COCC(=O)N1CCCC(c2csc(NC(C)=O)n2)C1` (stereo not shown) | -22.46 |
| 17 | `NC(=O)N1CCCN(Cc2cc(F)cc(Br)c2)CC1` | -11.77 |
| 18 | `CC(C)Oc1ncccc1CNC(=O)NC(C)c1cccs1` (stereo not shown) | 28.65 |
| 19 | `CC(C)(C)C(=O)N1CCC2(CNS(=O)(=O)c3cnccc3O2)C1` (stereo not shown) | -20.92 |
| 20 | `CC(C)COC(C)C(=O)NCCNC(=O)C(C)C` (stereo not shown) | 0.6067 |
| 21 | `CCCOCCCNc1nccc(-c2cn(C)nc2C)n1` | 19.73 |
| 22 | `O=C(O)C(F)(F)F.[H][C@]12CCN(c3ccccn3)[C@@]1([H])CC[C@@H](COCC(=O)N(C)C)O2` | -21.43 |
| 23 | `CN1CCC2(CC1)Cc1ccccc1CN(C(=O)CN)C2` | 15.36 |
| 24 | `COc1ccc(S(=O)(=O)NCCCc2ccc(N(C)C)cc2)cc1Cl` | 9.6 & 7.267 |
| 25 | `c1ccc(-c2nc(CN3CCCC3Cn3cncn3)no2)cc1` (stereo not shown) | 14.5 |
| 26 | `Cc1cnn(CC(=O)Nc2cc(-n3nnnc3C3CC3)ccc2F)c1` | 19.99 & 3.25 |
| 27 | `[H][C@]12CCCCN1CCC[C@H]2CCC(=O)N1Cc2nc(C)[nH]c(=O)c2C1` | -36.02 |
| 28 | `CC(=O)c1cn(CCC(=O)NCCC(=O)O)c2ccccc12` | -1.507 |
| 29 | `CCc1ccc(-c2cn(CCSc3ncn[nH]3)nn2)nc1` | -14.11 |
| 30 | `O=C(c1csnn1)N1CCc2[nH]nc(COc3cccc(Cl)c3)c2C1` | 31.91 |
| 31 | `[H][C@@]12CN(C(C)=O)C[C@]1(C(=O)NC)CCC21CCN(S(=O)(=O)C2CC2)CC1` | -32.04 |
| 32 | `Cc1ccc2c(c1)C(NC(=O)N(C)C)CC21CCN(C(C)C)CC1.O=C(O)C(F)(F)F` (stereo not shown) | -25.57 |
| 33 | `CO[C@H]1CN(C(=O)c2ccc(-c3ccccc3)[nH]2)CC[C@H]1N` | -2.145 & 2.945 |
| 34 | `Cn1cc(-c2ccnc(NCC3CCCCO3)n2)cn1` (stereo not shown) | 8.188 & 17.54 |
| 35 | `CC(C(=O)NCCN1CCCCC1)n1cncn1` (stereo not shown) | -23.32 |
| 36 | `Cc1cc(C)n(Cc2ccc(-c3noc(C(=O)NCCCO)n3)cc2)n1` | 17.82 |
| 37 | `O=S(=O)(NCCCn1cncn1)c1ccc2c(c1)CCC2` | 4.931 |
| 38 | `COc1ccc(C(=O)NC2CC2)c(OC2CCN(CC3CC3)CC2)c1` | -22.12 |
| 39 | `O=C(CCc1ccccc1)N1CC(n2cncn2)C1` | 24.46 & 7.953 |
| 40 | `O=C(Cc1ccc2c(c1)CCC2)NCCNc1cnccn1` | 12.23 |
| 41 | `COc1ccccc1CNC1(CCO)CCOCC1` | 13.39 |
| 42 | `O=C(O)C(F)(F)F.[H][C@@]12CCN(Cc3cccs3)C[C@]1(C(=O)N1CCCO1)CCO2` | 0.3032 |
| 43 | `COCCCS(=O)(=O)N1CCN(C(C)(C)CO)CC1` | 7.616 & 0.06356 |
| 44 | `Cc1cnn(CCNCc2c(C)nn(-c3ccccc3)c2C)c1` | -23.25 |
| 45 | `CC(=O)N1CCn2c(nnc2C2CCCCN2C(C)=O)C1` (stereo not shown) | -14.47 |
| 46 | `CC(C)=CCC1(CO)CCCN(Cc2cnc(N3CCOCC3)nc2)C1` (stereo not shown) | 3.448 |
| 47 | `CC(C)S(=O)(=O)N1C[C@@H](O)[C@H](N(C)Cc2ccc(F)cc2)C1` | -24.44 |
| 48 | `CCN1CCN(C(=O)c2ccc(OC)nn2)c2ccccc21` | 3.362 & 2.974 |
| 49 | `Cc1cnc(C(=O)N2CCCC3(CCN(c4cnn(C)c4)C3=O)C2)cn1` (stereo not shown) | -20.71 |
| 50 | `COCCn1/c(=N/C(=O)C(C)C)sc2cc(Cl)ccc21` | -73.04 |
| 51 | `O=C1CCC(C(=O)N2CCOC(Cc3cccc4ccccc34)C2)=NN1` (stereo not shown) | 7.333 |
| 52 | `Cc1nc(CNC(=O)NCC(O)c2cccc(Cl)c2)cs1` (stereo not shown) | -37.07 |
| 53 | `O=c1[nH]c2c(c(=O)n1C1CCCCC1)CCC2NCCc1ccccc1` (stereo not shown) | -3.093 |
| 54 | `c1ccc(OCc2ccncc2)c(CNC2CCc3ncnn3C2)c1` (stereo not shown) | -19.76 |
| 55 | `CCCN(C(=O)c1ocnc1C)C1CCCN(Cc2ccccc2)C1` (stereo not shown) | 10.93 |
| 56 | `Cc1ccnc(C2CCCN2C(=O)CN(C)C)n1` (stereo not shown) | -25.4 |
| 57 | `Cc1cccc2c1nc1n2[C@@H](CNC(=O)CCC(=O)O)COC1` | -20.92 & -0.3691 |
| 58 | `O=C(c1cc[nH]n1)N1CCCC(c2cc(C(F)(F)F)[nH]n2)C1` (stereo not shown) | 13.85 |
| 59 | `[H][C@@]12CN(Cc3ccsc3)C[C@]1([H])N(Cc1ccccn1)C(=O)O2` | -6.854 |
| 60 | `Cc1nc(NC(=O)OC(C)(C)C)sc1C(=O)O` | -36.82 |
| 61 | `CC(=O)NC1CCN(C(=O)Nc2cccc(SC(F)F)c2)CC1` | -10.14 |

For reference, 4 entries once more:

Compound,percent effect
O=C(O)C(F)(F)F.[H][C@@]12CCN(Cc3cccs3)C[C@]1(C(=O)N1CCCO1)CCO2,0.3032
Cc1noc(C)c1C(=O)N1CCSc2ccc(Cl)cc21,2.417
COc1ccc(C(=O)NC2CC2)c(OC2CCN(CC3CC3)CC2)c1,-22.12
CC(C(=O)NCCN1CCCCC1)n1cncn1 (stereo not shown),-23.32